Some of the results follow.
test system: T1, CTL2-GFP (C. trachomatis L2/434/Bu, GFP-expressing); parameters: species or system HeLa; Intracellular C. trachomatis growth in HeLa cells, bulk GFP fluorescence relative to DMSO; settings: bulk GFP, single well; 28.5 h, 10 µM; inhibitor
T1 construct: L2/434/Bu, GFP-expressing

Compound	% of control remaining
O=C(c1cccnc1)N1CCN(S(=O)(=O)c2ccc([N+](=O)[O-])cc2)CC1 [CBK264300]	120.48%
CC(C)CC(=O)NCCn1nc(-c2ccccc2F)cc1CN(C)C [CBK282005]	137.005%
C=CCNC(=O)Cn1c(-c2ccc(OC)cc2)cc2cccnc21 [CBK285363]	119.976%
CCCS(=O)(=O)Nc1ccc(=O)n2c1[C@@H]1C[C@@H](CN(C(=O)c3ccc(OC)cc3)C1)C2 [CBK288711]	143.601%
CCOC(=O)c1cc(S(=O)(=O)NC2CCN(C(=O)OCC)CC2)cn1C [CBK304665]	123.189%
O=C(NCCc1ccccn1)c1ccc(Cl)cc1Cl [CBK015946]	118.507%
COc1ccc(CCNC(=O)/C=C/C(=O)O)cc1OC [CBK265373]	100%
Cc1cc(CNS(=O)(=O)c2cccc3nonc23)no1 [CBK062263]	91.3354%
O=C(O)c1cccc(N2N=C(c3ccccc3)CC2=O)c1 [CBK286966]	139.17%
CN1CCC(N(C)Cc2coc3ccccc3c2=O)CC1 [CBK261578]	83.8975%
O=C(c1ccccc1F)N1CCC(c2nnc3n2CCCCC3)CC1 [CBK284628]	141.423%
O=[N+]([O-])c1ccc(N2CCN(S(=O)(=O)c3ccc(Cl)cc3)CC2)cc1NCc1cccnc1 [CBK264749]	87.6397%
O=C(CC1CC1)N1CCCC2(CCN(C(=O)c3cc(F)c(F)cc3F)C2)C1 (stereo not drawn) [CBK131531]	100%
Cc1ccc2c(c1)C(NC(=O)C1CC1)CC1(CCOCC1)O2 (stereo not drawn) [CBK284879]	125.043%
CC1=NS(=O)(=O)NC2=C1CCCC2 [CBK022998]	134.635%
O=C(c1ccc2nccnc2c1)N1CCN(c2ccccc2)CC1 [CBK200209]	96.5525%
CN(Cc1ccncn1)C(=O)c1cn(CC2CCCO2)nn1 (stereo not drawn) [CBK307081]	125.293%
CCC(C)(C)c1ccc(S(=O)(=O)N2CCCN(Cc3ccnc4ccccc34)CC2)cc1 [CBK062865]	127.908%
c1ccc(CCNc2cncc(-c3cc4ccccc4o3)n2)nc1 [CBK066036]	148.95%
Cc1cc(Br)ccc1C(=O)Nc1ccc2ncccc2c1 [CBK159814]	95.6964%
O=C(OCC(=O)c1cccc2ccccc12)c1cc2ccccc2cc1O [CBK265526]	105.552%
C=CCn1c(S)nnc1-c1ccc(Br)cc1 [CBK096756]	104.796%
CCOC(=O)c1cnn(C2CCCN(Cc3cccc(O)c3)C2)c1 (stereo not drawn) [CBK304046]	134.236%
Cc1nc(NS(=O)(=O)c2cc(Br)c(Cl)s2)sc1C(=O)O [CBK045560]	135.168%
CC1CC(=O)C2C=C(c3ccc(Br)cc3)NN=C2C1 (stereo not drawn) [CBK021352]	116.221%
Cc1nonc1CNC(=O)N1CCOCC(C2CCC2)C1 (stereo not drawn) [CBK304086]	118.852%

Compound	% of control remaining
Cc1ccc(C(=O)O)cc1S(=O)(=O)N(C)CCO [CBK267167]	117.82%
CC(C)(C)Nc1cc(NCCc2ccccc2)nc(N)n1 [CBK012708]	130.534%
O=C1NCCN1C1CCN(c2ncnc3ccccc23)CC1 [CBK304896]	79.0941%
Cn1c(Sc2ccc(C#N)cn2)nnc1-c1ccco1 [CBK297756]	111.226%
Nn1c(SCC(=O)Nc2cccc3ccccc23)nnc1-c1ccccc1Cl [CBK266080]	159.337%
Cc1ccc(C(=O)N2Cc3ccccc3C2)cn1 [CBK200318]	151.298%
CCc1ccc2c(c1)C(CCNC(=O)c1c(C)noc1C(F)F)C(=O)N2 (stereo not drawn) [CBK304090]	107.716%
CCCCOc1ccccc1NC(=O)CC1NCCNC1=O (stereo not drawn) [CBK269299]	152.042%
CN(C)/C=N/c1ncnc2c1nc(Br)n2C1CC(O)C(CO)O1 (stereo not drawn) [CBK201277]	201.722%
O=C(CCN1C(=O)/C(=C/c2ccc(F)cc2)SC1=S)NNC(=O)c1cccnc1 [CBK262862]	104.448%
COc1ccc(C(=O)N2CCC3(CCCN(C(=O)c4ccc5[nH]c(=O)[nH]c5c4)C3)C2)cc1OC (stereo not drawn) [CBK137086]	108.75%
CCc1nnc(NS(=O)(=O)c2ccc(N/C=C3\C(=O)N(c4ccc(Cl)cc4)N=C3C)cc2)s1 [CBK262416]	18.735%
CC(C)(C)C1CCc2c(sc(NC(=S)NC(=O)c3cc4ccccc4o3)c2C(N)=O)C1 (stereo not drawn) [CBK268635]	166.505%
c1ccc(N2CCN(c3cc(-c4cc5ccccc5s4)ncn3)CC2)nc1 [CBK091084]	124.623%
O=C1CC(c2ccc(F)cc2)CC(=O)C1=CNCCN1CCN(C(=S)Nc2ccccc2)CC1 (stereo not drawn) [CBK264784]	135.373%
Nc1ncnc2c1C(c1ccc(Cl)cc1)c1c(ccc3ccccc13)O2 (stereo not drawn) [CBK263938]	88.2888%
O=C(CSc1nnc(-c2ccncc2)n1-c1ccccc1)N/N=C/c1c[nH]c2ccccc12 [CBK262776]	123.994%
CCc1nn(CC(=O)N2CCCC(C)C2)c(=O)c2cc3occc3n12 (stereo not drawn) [CBK283657]	111.715%
Cc1cc(CNC(=O)Nc2ccc(F)c(-n3nnnc3C)c2)n(C)n1 [CBK305525]	170.434%
CCCNC(=O)C(C)NC(=O)C1=Cc2ccccc2OC1 (stereo not drawn) [CBK297937]	113.322%
CC(c1ncc(Br)cn1)N1CCN(Cc2noc(C(C)(C)C)n2)CC1 (stereo not drawn) [CBK306168]	128.447%
CN1CCC(=NNC(=O)CN(c2cccc([N+](=O)[O-])c2)S(=O)(=O)c2ccccc2)CC1 [CBK262727]	112.361%
CC(C)c1ccc(/C=C/C(=O)NCc2ccc3occc3c2)cc1 [CBK149620]	100%
CCc1cc(C(=O)N2CCC(Oc3ccccc3F)CC2)n(C)n1 [CBK282172]	78.8493%
CN1CCN(C(=O)c2ccsc2NS(=O)(=O)c2ccc(Oc3ccccc3)cc2)CC1 [CBK042277]	100%

Grouped by structure, the compounds so far containing an NH in an aromatic ring.
Compound	% of control remaining
COc1ccc(C(=O)N2CCC3(CCCN(C(=O)c4ccc5[nH]c(=O)[nH]c5c4)C3)C2)cc1OC (stereo not drawn) [CBK137086]	108.75%
O=C(CSc1nnc(-c2ccncc2)n1-c1ccccc1)N/N=C/c1c[nH]c2ccccc12 [CBK262776]	123.994%

Source: PMC12040169 (PLOS Biology, 2025)
